From patent publication US9970037B2, “Methods and materials for making simvastatin and related compounds” (The Regents of the University of California, priority 2006, dated 2018)
For at least one compound, name, drawing or mass did not settle the structure. Some results were stated once for a whole list of compounds, not compound by compound.

Tests used:
E. coli BL21(DE3)/pAW31 [1] = experiment: Whole cell biocatalysis with E. coli overexpressing LovD; type: cell-based, Escherichia coli; conditions: 15 mM monacolin J, 25 mM DMB-S-MMP, after 2 hours lag phase
Procedure: The BL21(DE3)/pAW31 overexpression strain was grown in a shake flask (200 mL) to an OD600 of 1.0, at which time 1 mM IPTG, 0.8 mM monacolin J and 4 mM of either benzoyl-SNAC or benzoyl-SMTG were added to the culture. Expression of LovD and bioconversion was performed at 18° C. The culture was extracted and analyzed for the formation of 8-benzoyl-monacolin J. When supplemented with benzoyl-SNAC, 84% conversion of monacolin J was detected within 20 hours post-induction. The product was lactonized and purified by a single silica-gel chromatography step. The NMR spectra confirmed the regioselective benzoylation of the C8 hydroxyl group as the diagnostic H8 multiplet is shifted downfield to δ 5.61.
Fermentation conditions: 500 mL culture with LB media with 30 mg/L kanamycin. At OD600 of 1.0, cells were concentrated to a final OD600 of 5.0 and induced with 1 mM IPTG. Substrates monacolin J and α-dimethylbutyryl-SNAC were added to a final concentration of 1 mM and 4 mM. At different time points, culture samples were collected, centrifuged, filtered and injected on to HPLC (20 μL). […]
Whole-cell catalytic synthesis of simvastatin acid from MJ acid and DMB-S-MMP were performed as described (see, e.g., Xie et al., (2007) Appl Environ Microbiol 73: 2054-2060). […] Growth rates were monitored by periodically measuring the OD600 reading. […]

E. coli BL21(DE3)/pAW31 [2] = conditions: 15 mM MJ, 25 mM DMB-S-MMP; cited from earlier work
E. coli = experiment: Whole-cell based hydrolysis / stability of thioester in E. coli cultures; set-up: species or system Escherichia coli
Procedure: The selected 57 mutants from the Keio collection together with BW25113, BL21(DE3) and BL21(DE3)/pAW31 were grown to saturation in a 96-well deep well plate in 1 mL LB media at 37° C. Neat DMB-S-MMP (5 μL) was added to each culture with a final concentration of 20 mM. […] The organic phase was dried, redissolved in 20 μL acetonitrile (CH3CN), and 1 μL was spotted on a TLC plate (silica gel 60 F254). The TLC plates were developed with 20% EA in hexane and visualized with iodine.
Analysis of the compounds were also performed with HPLC using an analytical C18 column (Alltech Apollo 5 u, 150 mm×4.6 mm); linear gradient: 60% CH3CN in water (0.1% trifluoroacetic acid [TFA]) to 95% CH3CN in water (0.1% TFA) over 5 min, 95% CH3CN in water (0.1% TFA) for 10 minutes, with a flow rate of 1 mL/min. HPLC retention times (tR) were as follows: MJ lactone form: 3.40 min; DMB-S-MPA: 3.82 min; DMB-S-MMP: 6.80 min; simvastatin lactone form: 8.45 min. Both MJ and simvastatin acids were lactonized before HPLC analysis.
The mutants, wild type […] and BL21(DE3) were grown to saturation in LB broth in a 96-well plate. We added 5 μL of neat DMB-S-MMP to each culture (1 mL) and the plate was shaken vigorously for 10 additional hours at room temperature. The cultures were acidified, extracted with ethyl acetate, and the organic phases were analyzed by thin layer chromatography (TLC) using a mobile phase (20% ethyl acetate in hexane) that enabled separation of DMB-S-MMP and DMB-S-MPA (FIG. 14A).
We previously observed that acyl-S-MTG was rapidly hydrolyzed when added to an E. coli fermentation broth reaction (see e.g., Xie et al., 2006, Chem Biol 13: 1161-1169). To test the stability of the newly identified acyl donor under in vivo conditions, neat DMB-S-MMP was added to LB medium inoculated with E. coli BL21(DE3) cells and the culture was grown at 37° C. overnight (16 hours). We observed ˜20% degradation of the substrate to a predominantly more polar compound. Compare to known compounds using HPLC, we identified the major degradation product to be DMB-S-MPA, which may arise through the action of endogenous E. coli lipases. We concluded that when DMB-S-MMP is supplied in excess in the batch reaction, the low extent of degradation will not limit the bioconversion of monacolin J to simvastatin.

LovD [3] = biological target: T1, LovD (Aspergillus terreus, UniProt Q9Y7D1); experiment: LovD transacylation assay: acyl transfer from acyl thioester to C8 hydroxyl of monacolin J, HPLC; type: biochemical; set-up: 6xHis (N); made in house; host or cells: E. coli BL21(DE3)/pAW31 (pET28a); conditions: for Initial Velocity (ki): 1 mM MJ, 4 mM thioester substrate, 10 uM pure LovD, 50 mM HEPES, pH 7.9, rate of initial turnover in the linear range; for equilibrium conversion of monacolin J: 100 uM LovD, 10 fold excess of acyl thioester
T1 sequence (Q9Y7D1 1-413): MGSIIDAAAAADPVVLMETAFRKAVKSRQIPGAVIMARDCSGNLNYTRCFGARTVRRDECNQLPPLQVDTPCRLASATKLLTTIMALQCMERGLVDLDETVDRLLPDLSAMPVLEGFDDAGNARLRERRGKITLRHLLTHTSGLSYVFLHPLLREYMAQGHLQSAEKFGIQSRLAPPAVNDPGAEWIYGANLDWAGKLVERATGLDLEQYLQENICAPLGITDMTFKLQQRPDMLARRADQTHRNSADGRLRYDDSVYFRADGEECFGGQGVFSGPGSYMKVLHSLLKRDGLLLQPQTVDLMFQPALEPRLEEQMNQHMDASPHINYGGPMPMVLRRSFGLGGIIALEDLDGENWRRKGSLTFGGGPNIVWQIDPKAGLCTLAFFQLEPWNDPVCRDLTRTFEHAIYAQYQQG
Procedure: We first examined if an acyl-CoA can be used as substrate for the transacylation reaction. The uninterrupted gene of LovD was amplified from A. terreus genomic DNA using splice by overlap extension PCR and was inserted into the pET28a expression vector. Overexpression of soluble, N-terminal 6×His fusion LovD was performed in E. coli strain BL21(DE3)/pAW31. LovD was purified using Nickel-NTA affinity column to homogeneity (final yield˜40 mg/L). The substrate monacolin J (1 mM) was prepared through the LiOH hydrolysis of lovastatin and was added to a reaction mixture containing pure LovD (10 μM) and butyryl-CoA (4 mM), which is a commercially available acyl-CoA that best mimics the natural α-methylbutyrate side chain. The reaction mixture was incubated at room temperature, extracted with ethyl acetate and analyzed by HPLC and LC-MS (FIG. 5).
We assayed the tolerance of LovD towards different acyl substituents by performing the transacylation assay with various commercially available acyl-CoAs (Table 1A). All assays were perform with 1 mM monacolin J, 4 mM acyl-CoA and 10 uM LovD for 10 hours.
Expression and purification of LovD has been previously described in detail (see, e.g., Xie et al., 2006, Chem Biol 13: 1161-1169). The assays were performed at room temperature in 50 mM HEPES, pH 7.9. The initial velocities (ki) of the acyl substrates were determined with 10 μM LovD, 1 mM monacolin J and 4 mM of the thioester. The reaction mixture at different time points was quenched by trifluoroacetic acid (TFA), extracted with ethyl acetate, evaporated to dryness and redissolved in acetonitrile. The percent conversion of monacolin J to simvastatin was determined by HPLC analysis (C18). The linear range of the turnover rate is reported as ki in Table 1B. To determine the Km of DMB-S-MMP, the concentration of monacolin J is fixed at 2 mM, while the concentration of DMB-S-MMP was varied from 0.2 mM to 10 mM. DMSO is added to a final concentration of 5% to facilitate solubilization of DMB-S-MMP. To obtain Km of monacolin J, DMB-S-MMP concentration is fixed at 2 mM, while the concentration of monacolin J is varied from 0.2 mM to 5 mM.

YT2/pAW31 = experiment: Whole cell biocatalysis with ΔbioH E. coli overexpressing LovD; type: cell-based, Escherichia coli; conditions: 15 mM MJ acid, 25 mM DMB-S-MMP
Procedure: Whole-cell catalytic synthesis of simvastatin acid from MJ acid and DMB-S-MMP were performed as described (see, e.g., Xie et al., (2007) Appl Environ Microbiol 73: 2054-2060). The E. coli BL21(DE3)/pAW31 and YT2/pAW31 strains were cultured side-by-side for comparison. A single colony of the freshly transformed strains was used to inoculate a 5 mL LB culture supplemented with 35 mg/L kanamycin and grown overnight at 37° C. The next morning, 100 μL of the overnight culture was inoculated into 50 mL cultures containing LB broth, F1 minimal medium and F1 medium supplemented with 0.15 mg/L biotin. Growth rates were monitored by periodically measuring the OD600 reading. When OD600 reached ˜0.5, 100 μM IPTG was added to the culture and expression of LovD was performed at 20° C. for 16 hours. To mimic high density fermentation conditions, the cells were concentrated 10-fold before addition of substrates. Typically, a 14 mL aliquot of the culture was transferred to a 15 mL centrifuge tube and the cells were collected by centrifugation (4° C., 4000 g, 10 minutes). The cell pellet was gently resuspended in 1316 μl of the supernatant, followed by addition of 84 μl of a MJ acid stock solution (250 mM in H2O) (final concentration 15 mM). The concentrated culture was then separated into seven 200 μL samples and 1.2 μL of pure DMB-S-MMP was added to each sample (final concentration ˜25 mM). […]

LovD [4] = biological target: T1, LovD; set-up: 6xHis (N); made in house; host or cells: E. coli BL21(DE3)/pAW31 (pET28a); conditions: Xie et al., 2007; cited from earlier work
LovD [5] = biological target: T1, LovD; conditions: label = product formed

## CCC(C)(C)C(=O)SCCC(=O)OC [DMB-S-MMP, α-dimethylbutyryl-S-methyl-mercaptopropionate]
E. coli BL21(DE3)/pAW31 [1]
  linear reaction velocity of simvastatin formation: ~0.73 mM per hour
E. coli BL21(DE3)/pAW31 [2]
  rate of simvastatin acid synthesis in linear range (data from Xie et al. 2007): 0.75 mM/h
E. coli; 20 mM DMB-S-MMP, LB culture, 10 hours, HPLC
  thioester hydrolyzed to DMB-S-MPA in bioH+ strains: ~30%
E. coli; LB medium with E. coli BL21(DE3), 37° C. overnight (16 hours)
  degradation of the substrate in E. coli culture: ~20%
E. coli; YT2 (BL21(DE3) ΔbioH) in LB medium
  hydrolysis of the thioester by strain YT2: no detectable hydrolysis
E. coli; ΔbioH strain, 10 hours, HPLC
  DMB-S-MPA in organic extract of ΔbioH mutant (hydrolysis of DMB-S-MMP): cannot be detected
LovD [3]
  kcat fold higher than DMB-S-NAC: approximately 30 fold
  Initial Velocity (ki): 0.60 min⁻¹
YT2/pAW31
  rate of simvastatin acid synthesis in linear range: 1.5 mM/h

## CCC(C)(C)C(=O)SCCC(=O)O [DMB-S-MPA, dimethylbutyryl mercaptopropionic acid]
LovD [4]
  dimethylbutyrate donor efficiency, fold slower than DMB-S-MMP: ~10 fold
LovD [3]
  Initial Velocity (ki): 0.08 min⁻¹

## CCC(C)(C)C(=O)SCC(=O)OC [DMB-S-MTG, dimethylbutyryl-S-methyl thioglycolate]
LovD [3]
  equilibrium conversion of monacolin J: > 70%

## CCC(C)(C)C(=O)SCCNC(C)=O [DMB-S-NAC, α-dimethylbutyryl-S-N-acetylcysteamine]
LovD [3]
  equilibrium conversion of monacolin J: > 70%

## CC[C@H](C)C(=O)O[C@H]1C[C@H](O)C=C2C=C[C@H](C)[C@H](CC[C@@H](O)C[C@@H](O)CC(=O)O)[C@H]21 [pravastatin, reference compound]
LovD [5]
  apparent turnover rate for synthesis from tetra-ol 7 using the corresponding acyl-thioester: 0.11 min⁻¹
